# According to the supplement of paper PMC12889115:
# This is one part of the list. These are raw signals, not scaled to a control.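 Primary screen: polymyxin B was added at a level permeabilizing Salmonella outer membranes while sparing inner membranes. DMSO wells, both with and without polymyxin B, established maximum growth. Plate-to-plate variation meant each plate was ranked on its own, and the lowest-OD600 compounds were selected as hits.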
# Tested on: Salmonella enterica serovar Typhimurium SL1344
# Experiment: bacterial growth OD600 after 18 h with compound and polymyxin B; higher = more bacterial growth (less inhibition)
# Conditions: 50 µM, Mueller-Hinton broth
SMILES,bacterial growth OD600 (polymyxin B 1 µg/mL),bacterial growth OD600 (polymyxin B 0.75 µg/mL)
COc1ccc(CC(=O)NCC2CCCN(C(=O)c3cc(CC(C)C)n[nH]3)C2)cc1 (stereo not drawn),0.884,–
O=C1NCCN(C/C=C/c2ccccc2)C1CC(=O)N1CCCCO1 (stereo not drawn),0.705,–
O=C(/C=C/c1ccccc1Cl)NCC1CCC2(CCN(Cc3ccccc3F)CC2)O1 (stereo not drawn),–,0.671
COc1cc2nc(-c3cc4c(c(OC)c3)OCCN(C(=O)C3CCCCC3)C4)cc(C)c2cc1OC,–,0.926
COc1ccc(F)c(CC2(CCC(=O)N3CCOc4ccc(Cl)cc4C3)CCC(=O)N2)c1 (stereo not drawn),–,0.836
CCOC(=O)N1CCC(NC2CCN(c3ccc(NC(=O)Cc4ccc(OC)cc4)cc3)CC2)CC1,–,0.83
COc1ccc(C2c3[nH]c4ccccc4c3CCN2Cc2cnn(C)c2)c(F)c1 (stereo not drawn),0.773,–
COCc1ccc(CN2CCN(c3nc(-c4ccccc4)nc4c3CCC4)CC2)o1,0.763,–
